# Experimental data as given in patent US9480722B2, “Method of alleviating or treating periodontal disease” (priority 2012, dated 2016).
# Some of these results come from one statement about several compounds together.
# System: Porphyromonas gingivalis
# Assay: Determination of minimal inhibitory concentration (MIC), broth microplate, absorbance at 600 nm
# Format: cell-based
# Conditions: concentration below 4 mg/ml, FIG. 2
# Protocol: Porphyromonas gingivalis was purchased from Food Industry Research and Development Institute ([…], Taiwan) with the accession number BCRC 14417. After thawing from frozen tube, Porphyromonas gingivalis was activated in the supplemented brain heart infusion broth, and cultured at 37° C. anaerobic condition (80% N2, 10% H2, 10% CO2) for 24 hours to 48 hours. […] Chlorhexidine was used as positive control. The 2.5% (v/v) dimethyl sulfoxide was used as normal control.
smiles,measurement,value
"[H]/N=C(\N/C(=N/[H])NCCCCCCNC(=N)NC(=N)Nc1ccc(Cl)cc1)Nc1ccc(Cl)cc1 [Chlorhexidine, Chlorhexidine digluconate]",absorption (600 nm),higher than 0.5
